Several values for one entry are separate records, joined by “and”; a condition that tells them apart may be missing. Equal entries are not always repeated. At least one structure is not confirmed: it was looked up by name or label, or the drawing left a doubt.
How the values were obtained:
[1] = tested on: Rabbit polyclonal antibody #10930; assay: Specificity of the immunoassay (cross-reactivity of antibody with other antiepileptic drugs); type: binding; details: Gabapentin 35 μg/mL (Control) in human serum; Cobas Mira
Text: Antibodies obtained using any of the disclosed techniques are screened or purified not only for their ability to react with gabapentin, but for a low cross-reactivity with potential interfering substances. “Cross-reactivity” may be determined in a quantitative immunoassay by establishing a standard curve using known dilutions of the target analyte, gabapentin. The standard curve is then used to calculate the apparent concentration of the interfering substance present in various known amounts in samples assayed under similar condition. The cross-reactivity is the apparent concentration divided by the actual concentration multiplied by 100. […] Furthermore, the cross-reactivity can be determined in the same type of immunoassay in which the antibody will ultimately be used.
The gabapentin antibodies and enzyme conjugates may be advantageously used in a homogeneous assay format to detect gabapentin in samples. […] The oxidation of G6P is coupled with the reduction of NAD^+ to NADH, which can be measured at 340 nm. The change in the absorbance at 340 nm can be measured spectrophotometrically. The gabapentin concentration in a specimen can be measured in terms of G6PDH activity. […]
The specificity of the immunoassay was evaluated by adding potentially crossreactant drugs to human serum and determining the increase in the apparent concentration as a result of the presence of crossreactant. […]

[2] = tested on: Rabbit polyclonal antibody #10930; type: binding

**Q.** NCC1(CC(=O)O)CCCCC1 [Gabapentin, (1-aminomethyl)cyclohexane-1-acetic acid] was tested. Which “Percent Increase in Apparent Gabapentin” value [1] did it give?
**A.** 98%

**Q.** What about the “Reaction Rate (mA/min) Average of Duplicates” value [2] of the same compound?
**A.** 646.0 mA/min and 602.3 mA/min and 611.4 mA/min and 627.3 mA/min
